Literature values, collected in patent US20230128402A1 (The Trustees of Princeton University, priority 2020, published 2023).
Some of these results come from one statement about several compounds together.

Biological target: T1, ALDH1a3 (Homo sapiens, UniProt P47895)
T1 sequence (P47895 1-512): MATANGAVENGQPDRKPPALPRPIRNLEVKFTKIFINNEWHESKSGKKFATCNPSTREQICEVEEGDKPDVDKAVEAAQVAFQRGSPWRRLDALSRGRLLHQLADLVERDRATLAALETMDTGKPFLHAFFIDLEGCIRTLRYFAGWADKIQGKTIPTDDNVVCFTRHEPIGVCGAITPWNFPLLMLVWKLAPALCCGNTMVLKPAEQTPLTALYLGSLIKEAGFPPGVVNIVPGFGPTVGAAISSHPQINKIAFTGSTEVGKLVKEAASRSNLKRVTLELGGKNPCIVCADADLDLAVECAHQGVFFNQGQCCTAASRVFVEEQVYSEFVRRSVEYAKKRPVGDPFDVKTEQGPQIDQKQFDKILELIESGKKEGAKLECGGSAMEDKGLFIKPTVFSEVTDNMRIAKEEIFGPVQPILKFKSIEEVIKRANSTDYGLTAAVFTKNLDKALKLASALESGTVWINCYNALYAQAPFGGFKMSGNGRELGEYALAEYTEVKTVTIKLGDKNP
Parameters: lentiviral vectors containing either the vector backbone or full-length human Aldh1a3; expressed in transfected cells; host or cells: SUM159-M1a human breast cancer cells, lentiviral pLex vector
Settings: shown in PCT/US2019/044278, ALDEFLUOR assay; cited from earlier work

Row | Compound | inhibition of ALDH1a3
1 | CCCc1cnccc1C(=O)Nc1cc2c(cc1F)NC(=O)CC2 [Compound 5] | can inhibit ALDH1a3
2 | O=C1CCc2cc(NCc3ccccc3)ccc2N1 [Compound 14] | can inhibit ALDH1a3
3 | CC(C)c1cnccc1C(=O)Nc1cc2c(cc1F)NC(=O)CC2 [Compound 6] | can inhibit ALDH1a3
4 | Cc1ccc(C(=O)Nc2ccc3c(c2)CCC(=O)N3)c(C)c1 [Compound 12] | can inhibit ALDH1a3
5 | Cc1ccc(C)c(CNc2ccc3c(c2)CCC(=O)N3)c1 [Compound 10] | can inhibit ALDH1a3
6 | CCc1cnccc1CNc1cc2c(cc1F)NC(=O)CC2 [Compound 3] | can inhibit ALDH1a3
7 | Cc1cc(C(=O)Nc2cc3c(cc2F)NC(=O)CC3)ccn1 [Compound 16] | can inhibit ALDH1a3
8 | O=C1CCc2cc(NCc3cc[nH]c3)c(F)cc2N1 [Compound 17] | can inhibit ALDH1a3
9 | Cc1ccc(C(=O)Nc2ccc3c(c2)CCC(=O)N3)cc1C [Compound 11] | can inhibit ALDH1a3
10 | O=C1CCc2cc(NC(=O)c3ccncc3)c(F)cc2N1 [Compound 2] | can inhibit ALDH1a3
11 | CC(C)Cc1cnccc1C(=O)Nc1cc2c(cc1F)NC(=O)CC2 [Compound 7] | can inhibit ALDH1a3
12 | 2-ethyl-N-(7-fluoro-2-oxo-3,4-dihydro-1H-quinolin-6-yl)benzamide [Compound 4] | can inhibit ALDH1a3
13 | CCc1cnc(C)cc1C(=O)Nc1cc2c(cc1F)NC(=O)CC2 [Compound 8] | can inhibit ALDH1a3
14 | Cc1cnccc1C(=O)Nc1cc2c(cc1F)NC(=O)CC2 [Compound 15] | can inhibit ALDH1a3
15 | Cc1ccccc1C(=O)Nc1ccc2c(c1)CCC(=O)N2 [Compound 13] | can inhibit ALDH1a3
